The target in the data set is T1, EL222 (14-222) wild type (Erythrobacter litoralis) (UniProt Q2NB98).
T1 sequence: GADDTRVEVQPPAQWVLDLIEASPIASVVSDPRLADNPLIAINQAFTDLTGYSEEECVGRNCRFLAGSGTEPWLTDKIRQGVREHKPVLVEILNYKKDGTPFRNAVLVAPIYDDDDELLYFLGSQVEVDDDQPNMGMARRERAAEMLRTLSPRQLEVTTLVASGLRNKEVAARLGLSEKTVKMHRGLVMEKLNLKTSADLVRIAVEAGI
The data set is described as follows: EMSA. To be noted: light; contains half of motif; purified recombinant protein; protein details: His6-Gβ1 (pHis6-Gβ1-Parallel1); label: 5'-32P; variant of Clone-1. On the technique in general: A gel shift assay detects complexes by their altered migration in electrophoresis.

For at least one entry, the source does not settle the construct or the ends of the probe. Negatives hold for the conditions tested. Where a protein sequence is shown, tags need not be part of it.

Consider “TCTACGTTATAGGTAGCCTT (double strand) [C1-1]”, for which the binding result was “no binding”.

Consider “TTTAGTCCATGCTGATTCGT (double strand) [C1-3]”, for which the binding result is “no binding”.

For the origin of these results see US20140325692, “BLUE-LIGHT INDUCIBLE SYSTEM FOR GENE EXPRESSION” (BOARD OF REGENTS, THE UNIVERSITY OF TEXAS SYSTEM, published 2014).
